Assay results from patent US20160046678A1 (ZYNGENIA, published 2016).
These are yes or no findings as the source states them, for the method shown. Some binding calls cover weakened binding; strength is not graded here.

The chains behind the UniProt entries cited, without tags or fusion partners. Residues count along the entry.
UniProt P05231, residues 30-212: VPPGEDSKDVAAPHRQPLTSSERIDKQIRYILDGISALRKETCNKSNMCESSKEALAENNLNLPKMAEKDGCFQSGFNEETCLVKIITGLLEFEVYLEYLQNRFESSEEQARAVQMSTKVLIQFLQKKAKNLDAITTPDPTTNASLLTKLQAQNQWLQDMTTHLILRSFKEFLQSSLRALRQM

B1: ILB581 (peptide)
peptide: VWTAFIQMNSGQAGQGSFNEDCMWDPLLMDCAYSP
B2: ILB631 (peptide)
peptide: LQAWMWQVNQGQAGQGSATGGSSFNEDCMWDPLLMDCAYSPQGSATGGSSFNEDCMWDPLLMDCAYSP
B3: ILB585 (peptide)
peptide: GCSMCHMMMVKWHRGQAGQGSFNEDCMWDPLLMDCAYSP
B4: ILB599 (peptide)
peptide: YTTYNWKPWQGQAGQGSATGGSSFNEDCMWDPLLMDCAYSP
B5: ILB634 (peptide)
peptide: QYTEMVALVYGQAGQGSATGGSGSTASSFNEDCMWDPLLMDCAYSP
B6: ILB607 (peptide)
peptide: MPLDDQPFLEGQAGQGSFNEDCMWDPLLMDCAYSP
B7: ILB623 (peptide)
peptide: ANSWCHTLYWDLMYCVWQE
B8: ILB612 (peptide)
peptide: QCWIYPYDGLCNGQAGQGSATGGSSFNEDCMWDPLLMDCAYSP
B9: ILB602 (peptide)
peptide: PESWCHTLYWNLQHCLSQE
B10: ILB632 (peptide)
peptide: QFPYESPPSIGQAGQGSFNEDCMWDPLLMDCAYSP
B11: ILB584 (peptide)
peptide: MTTMYHIIVLGQAGQGSATGGSGSTASSFNEDCMWDPLLMDCAYSP
B12: ILB598 (peptide)
peptide: AEHTFALQYVGQAGQGSFNEDCMWDPLLMDCAYSP
B13: ILB629 (peptide)
peptide: LQAWMWQVNQGQAGQGSATGGSSFNEDCMWDPLLMDCAYSP
B14: ILB608 (peptide)
peptide: HTEFQRLEWPQGSATGGSSFNEDCMWDPLLMDCAYSP
B15: ILB597 (peptide)
peptide: HHQQSMYWLEGQAGQGSATGGSSFNEDCMWDPLLMDCAYSP
B16: ILB635 (peptide)
peptide: PDSWCHTLYWHLQHCLSQE
B17: ILB633 (peptide)
peptide: IYLSWDMPALGQAGQGSATGGSGSTASSFNEDCMWDPLLMDCAYSP
B18: ILB624 (peptide)
peptide: DGSGFYPNKWFHGGQAGQGSATGGSSFNEDCMWDPLLMDCAYSP
B19: ILB618 (peptide)
peptide: QDNIAYQGWWGQAGQGSFNEDCMWDPLLMDCAYSP
B20: ILB588 (peptide)
peptide: ELGGRKSMLIGQAGQGSFNEDCMWDPLLMDCAYSP
B21: ILB627 (peptide)
peptide: HPMEIKTMMKGQAGQGSFNEDCMWDPLLMDCAYSP
B22: ILB625 (peptide)
peptide: MVYRWVMQADGQAGQGSATGGSGSTASSGSGSSFNEDCMWDPLLMDCAYSP
B23: ILB583 (peptide)
peptide: LFIPYMAQIWGQAGQGSFNEDCMWDPLLMDCAYSP
B24: ILB615 (peptide)
peptide: FNFERWEQKPQGSFNEDCMWDPLLMDCAYSP
B25: ILB611 (peptide)
peptide: QSHIHLEKWLGQAGQGSFNEDCMWDPLLMDCAYSP
B26: ILB616 (peptide)
peptide: YVLQQVEMQEGQAGQGSFNEDCMWDPLLMDCAYSP
B27: ILB601 (peptide)
peptide: EVVGVGWFLNGQAGQGSFNEDCMWDPLLMDCAYSP
B28: ILB595 (peptide)
peptide: VCQDEVYMWCEGQAGQGSATGGSSFNEDCMWDPLLMDCAYSP
B29: ILB594 (peptide)
peptide: YEEHCRLFPADWICSLLQ
B30: ILB622 (peptide)
peptide: WLFVAEQSQYGQAGQGSATGGSSFNEDCMWDPLLMDCAYSP
B31: ILB636 (peptide)
peptide: PAKDPFVMRHGQAGQGSATGGSSFNEDCMWDPLLMDCAYSP
B32: ILB614 (peptide)
peptide: PLYTVWKWSGGQAGQGSATGGSGSTASSFNEDCMWDPLLMDCAYSP
B33: ILB596 (peptide)
peptide: ADSWCHTLYWNLRHCEIQE
B34: ILB619 (peptide)
peptide: MDHIWQHGQLGQAGQGSATGGSSFNEDCMWDPLLMDCAYSP
B35: ILB586 (peptide)
peptide: EQHVDWYWVPQGSFNEDCMWDPLLMDCAYSP
B36: ILB605 (peptide)
peptide: TCELMQAWTHLGQAGQGSATGGSSFNEDCMWDPLLMDCAYSP
B37: ILB592 (peptide)
peptide: WVPDMWMHEWGQAGQGSFNEDCMWDPLLMDCAYSP
B38: ILB593 (peptide)
peptide: YQDSWITGMQGQAGQGSATGGSSFNEDCMWDPLLMDCAYSP
B39: ILB603 (peptide)
peptide: IDNKYEGMVLGQAGQGSFNEDCMWDPLLMDCAYSP
B40: ILB591 (peptide)
peptide: LIVPAPLTWWGQAGQGSFNEDCMWDPLLMDCAYSP
B41: ILB587 (peptide)
peptide: NQTQPKRPTDGQAGQGSFNEDCMWDPLLMDCAYSP
B42: ILB620 (peptide)
peptide: SCFGDLQICWGQAGQGSATGGSGSTASSGSGSSFNEDCMWDPLLMDCAYSP
B43: ILB613 (peptide)
peptide: TCTHLVKTVLIGQAGQGSFNEDCMWDPLLMDCAYSP
B44: ILB582 (peptide)
peptide: QIQQFSFWVQGQAGQGSFNEDCMWDPLLMDCAYSP
B45: ILB606 (peptide)
peptide: YYPQHIDHIMGQAGQGSATGGSSFNEDCMWDPLLMDCAYSP
B46: ILB630 (peptide)
peptide: GCNYFPTQWECYGQAGQGSFNEDCMWDPLLMDCAYSP
B47: ILB604 (peptide)
peptide: HWMTYQFWIQGQAGQGSATGGSSFNEDCMWDPLLMDCAYSP
B48: ILB590 (peptide)
peptide: YCTDRVDICMGQAGQGSATGGSGSTASSFNEDCMWDPLLMDCAYSP
B49: ILB610 (peptide)
peptide: QTGWGPKYMWGQAGQGSFNEDCMWDPLLMDCAYSP
B50: ILB589 (peptide)
peptide: EAWRELRWWNGQAGQGSFNEDCMWDPLLMDCAYSP
B51: ILB621 (peptide)
peptide: HCKDMHWAIQFGQAGQGSFNEDCMWDPLLMDCAYSP
B52: ILB600 (peptide)
peptide: ACDTQHHGCMGQAGQGSATGGSGSTASSFNEDCMWDPLLMDCAYSP
B53: ILB609 (peptide)
peptide: IQWPSMMEIHGQAGQGSFNEDCMWDPLLMDCAYSP
B54: ILB617 (peptide)
peptide: SMTKYKALYHGQAGQGSFNEDCMWDPLLMDCAYSP

Biological target: IL6 (UniProt P05231)
Experiment: MRD identification, Example 48

binding, binds:
B1, B2, B3, B4, B5, B6, B7, B8, B9, B10, B11, B12, B13, B14, B15, B16, B17, B18, B19, B20, B21, B22, B23, B24, B25, B26, B27, B28, B29, B30, B31, B32, B33, B34, B35, B36, B37, B38, B39, B40, B41, B42, B43, B44, B45, B46, B47, B48, B49, B50, B51, B52, B53, B54
